# Experimental data: the supplement of paper PMC7858590
# “And” between values parts separate entries of the source, which are not always exact repeats. Equal entries are not always repeated. ± gives the standard deviation of the averaged measurements. In all, about 3,800 compounds were measured (“cell shape (eccentricity) Z-score vs DMSO control”: median about 1.1, lowest 2% from about -4.7 on). The list shows a part of the results.
# System: human monocyte-derived macrophages (M0)
# Experiment: cell shape (eccentricity) Z-score vs DMSO control; higher = more elongated, M2-like morphology
# Settings: 20 µM; 24 h; macrophage state: M0 (M-CSF)
# Procedure: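 Primary human monocyte-derived macrophages (M-CSF differentiated, pooled from 4 donors, 5000 cells/well in 384-well plates) were treated with each compound at 20 uM for 24 h, then fixed and stained with phalloidin/DAPI and imaged on an Opera Phenix (6 fields, about 1000 cells/well). Cell eccentricity was measured with CellProfiler, and a Z-score (t-test) was computed against 4 DMSO control wells in the same row. Negative values mean round (M1-like) cells and positive values mean elongated (M2-like) cells; the paper's hit cutoffs are Z <= -4 (M1) and Z >= 6 (M2). Scale: negative = round, M1-like.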
row,Structure (SMILES),cell shape (Z-score)
1,C[C@]12CC[C@@H](O)C[C@@H]1CC[C@@H]1[C@@H]2CC[C@]2(C)C(=O)[C@@H](Br)C[C@@H]12,-2.79
2,CCC1(CC)C(=O)NC(=O)NC1=O,8.63
3,CN1C2C[C@H](OC(=O)[C@H](CO)c3ccccc3)C[C@H]1[C@@H](O)C2,0.918
4,CC(C)=CC1C(C(=O)OCc2coc(Cc3ccccc3)c2)C1(C)C (configuration not stated),5.88
5,Cc1nnc2ccc(-c3cccc(C(F)(F)F)c3)nn12,-1.12
6,COc1ccc2c(c1OC)CN1CCc3cc4c(cc3C1C2)OCO4 (configuration not stated),3.2
7,C=CC(C)(C)[C@]12C=C(OC)C(=O)N3/C(=C/c4cnc[nH]4)C(=O)N[C@@]31N(OC)c1ccccc12,1.14
8,CN(C)[C@@H]1C(=O)C(C(N)=O)C(=O)[C@@]2(O)C(=O)C3C(=O)c4c(O)cccc4[C@@](C)(O)C3[C@H](O)C12 (some centres not stated),-0.752
9,CC(N)Cn1ccc2cc(F)c(Cl)cc21 (configuration not stated),0.211
10,COc1ccc(CCN2CCC(Nc3nc4ccccc4n3Cc3ccc(F)cc3)CC2)cc1,0.69
11,CCCN1C[C@H](CSC)C[C@@H]2c3cccc4[nH]cc(c34)C[C@H]21,-0.369
12,C[N+]1(C)CCc2cc3c(cc2C1[C@@H]1OC(=O)c2c1ccc1c2OCO1)OCO3 (some centres not stated),2.95
13,O=C1Nc2cc(Cl)c(Cl)cc2N2CCNCC12 (configuration not stated),2.26
14,C[C@H]1O[C@@H](O[C@H]2CC[C@]3(CO)C4CC[C@]5(C)[C@@H](C6=CC(=O)OC6)CC[C@]5(O)[C@@H]4CC[C@H]3C2)[C@H](O)[C@H](O)[C@@H]1O[C@@H]1O[C@H](CO)[C@@H](O)[C@H](O)[C@H]1O (some centres not stated),-6
15,Ic1cncc(OC[C@@H]2CCN2)c1,-2.82
16,Clc1ccc(N2CCN(Cc3c[nH]c4ncccc34)CC2)cc1,-2.74
17,CCC(=O)CCCCC[C@@H]1NC(=O)[C@H]2CCCCN2C(=O)[C@H]([C@H](C)CC)NC(=O)[C@H](Cc2cn(OC)c3ccccc23)NC1=O,13.4
18,Cc1ccc2c(c1)Cc1c(C(=O)NN3CCCCC3)nn(-c3ccc(Cl)cc3Cl)c1-2,2.07
19,CN1C2CCC1CC(OC(c1ccc(F)cc1)c1ccc(F)cc1)C2 (configuration not stated),2.94
20,C=CC(C)(C)[C@@]12C[C@H]3C(=O)N/C(=C\c4cnc[nH]4)C(=O)N3[C@@H]1Nc1ccccc12,-3.18
21,C[C@]12[C@H](O)CC3C(CC[C@@H]4C[C@@H](O)CC[C@]34C)[C@@]1(O)CC[C@@H]2C1=CC(=O)OC1 (some centres not stated),-0.702
22,CCC1(CC)C(=O)C=CNC1=O,3.86
23,COc1cc(N)c(Cl)cc1C(=O)NC1CN2CCC1CC2 (configuration not stated),1.5 and 3.06
24,COc1ccc2c(c1O)-c1c(OC)c(OC)cc3c1[C@H](C2)N(C)CC3,1.61
25,Oc1ccc2c3c1OC1c4oc5ccccc5c4CC4(O)C(C2)N(CC2CC2)CCC314 (configuration not stated),2.92

row,Structure (SMILES),cell shape (Z-score)
1,CCC1C(C)=NN=C(c2ccc(OC)c(OC)c2)c2cc(OC)c(OC)cc21 (configuration not stated),2.3
2,CCN1C[C@]2(C)CC[C@H](O)[C@@]34C2[C@H](OC)C([C@@H]13)[C@@]1(O)C[C@H](OC)[C@H]2C[C@@H]4[C@@H]1[C@H]2O,-1.42 ± 3.7
3,COc1ccc(C(=O)O)cc1OC,1.09
4,NC(=O)OCCCc1ccccc1,-0.0339
5,COc1cc2c(c(OC)c1OC)-c1ccc(OC)c(=O)cc1[C@@H](NC(C)=O)CC2,8.06
6,CN1CC(C(=O)NC2(C)OC3(O)C4CCCN4C(=O)C(Cc4ccccc4)N3C2=O)CC2c3cccc4[nH]cc(c34)CC21 (configuration not stated),2.08
7,COC(=O)NC(=S)Nc1ccccc1NC(=S)NC(=O)OC,-0.862
8,CCOC(=O)c1c(C(C#N)=CN)c2ccc(Cl)c(Cl)c2n1C,-1.1
9,CO[C@H]1[C@H](O)[C@@H](O[C@H]2CC[C@]3(C=O)C4CC[C@]5(C)[C@@H](C6=CC(=O)OC6)CC[C@]5(O)C4CC[C@@H]3C2)O[C@@H](C)[C@@H]1O (some centres not stated),-0.177
10,CC1(C)C(=O)[C@@H]2O[C@@H]2[C@@]2(C)C1C[C@@H](O)[C@]1(C)C2CC[C@@]2(C)[C@H](c3ccoc3)OC(=O)C3OC321 (some centres not stated),-2.76
11,CN1CCCCC1c1ccc(-c2cccnc2)nc1 (configuration not stated),1.81
12,CS(=O)(=O)Nc1ccc(Cc2noc(-c3ccc4[nH]cc(CCN)c4c3)n2)cc1,1.96
13,CCC1CN2CCC3(C(=O)Nc4cccc(O)c43)C2CC1/C(=C/OC)C(=O)OC (configuration not stated),-0.148
14,C=C[C@H]1C[N@@]2CC[C@H]1C[C@@H]2[C@@H](OC(=O)OCC)c1ccnc2ccc(OC)cc12,2.6
15,C[C@]12CCC(=O)C=C1CCC1C2CC[C@@]2(C)C1CC[C@H]2O (some centres not stated),2.55
16,C/C=C\C(C)=C\[C@H](C)C(=O)C[C@H](O)CC1CC(=O)NC(=O)C1,-0.473
17,CC(C)[C@]12O[C@H]1[C@@H]1O[C@]13[C@]1(O[C@H]1CC1C4=C(CC[C@@]13C)C(=O)OC4)[C@@H]2O (some centres not stated),8.48
18,COc1ccc(CNC(=O)C=Cc2ccc3[nH]cc(CCN(C)C)c3c2)cc1,0.181
19,COc1ccccc1N1CCNCC1,1.68
20,COc1ccc(-n2nc(C(F)(F)F)cc2-c2ccc(Cl)cc2)cc1,1.25
21,CCN1C[C@]2(COC)CCC(OC)[C@@]34C5C[C@@]6(O)[C@H](OC(=O)c7ccc(OC)cc7)C5[C@@](OC(C)=O)(C[C@H]6OC)[C@@H]([C@H](OC)C23)[C@@H]14 (some centres not stated),6.7
22,C=CCN1C[C@H](C)N([C@@H](c2ccccc2)c2ccc(C(=O)N(CC)CC)cc2)C[C@H]1C,-3.15
23,FC(F)(F)c1cccc(C2=CCN(CCc3ccc4ccccc4c3)CC2)c1,3.06
24,CC(C)[C@@]1(NC(=O)[C@@H]2CC3c4cccc5[nH]cc(c45)C[C@H]3N(C)C2)O[C@@]2(O)[C@@H]3CCCN3C(=O)[C@H](Cc3ccccc3)N2C1=O (some centres not stated),2.78
25,COc1ccc2c(c1)[C@]13CCCC[C@H]1[C@H](C2)N(C)CC3,2.66

row,Structure (SMILES),cell shape (Z-score)
1,CCCCCCCCCCCCCCCC[n+]1ccccc1,0.864
2,COc1cc2c(cc1O)C1Cc3ccc(OC)c(O)c3CN1CC2 (configuration not stated),1.71
3,CCOP(=S)(OCC)Oc1nc(Cl)c(Cl)cc1Cl,1.76
4,CCCC1CC2=CC(=O)CCC2(C)C2CCC3(C)C(CCC3(O)CCC(=O)O)C12 (configuration not stated),2.52
5,COc1cc2c(cc1O)CC1c3c(cc(O)c(OC)c3-2)CCN1C (configuration not stated),-0.0666
6,CC(C)CCCC1(C)C=Cc2c(O)c3c(c(CCC(C)C)c2O1)OC12C(CC4CC1C(C)(C)OC2(CCC(C)C(=O)O)C4O)C3=O (configuration not stated),2.8
7,COC(/C=C/CC/C=C/C(=O)O)C(O)C(C)C(O)/C(C)=C/C(C)C(=O)CCCC1CC(=O)NC(=O)C1 (configuration not stated),0.215 ± 1.7
8,CCCN[C@@H]1CCc2c(OC)cccc2[C@@H]1C,0.584
9,CC(C)(C)CC(C)(C)c1ccc(O)cc1,-0.489
10,Cc1c([N+](=O)[O-])oc2ccc3ccccc3c12,-0.364
11,CC[C@@]1(O)C[C@H](O)c2c(cc3c(c2O)C(=O)c2c(O)ccc(O)c2C3=O)[C@H]1C(=O)OC,0.319
12,NC(=O)CS(=O)C(c1ccccc1)c1ccccc1 (configuration not stated),1.55
13,N#CC(C#N)Cc1ccc(O)cc1,1.59
14,CC12C(=O)OC(=O)C1(C)C1CCC2O1 (configuration not stated),-12.8
15,CCC(CO)NC(=O)C1C=C2c3cccc4[nH]cc(c34)CC2N(C)C1 (configuration not stated),3.27
16,CC(C)c1c(CN(C)C(C)Cc2ccccc2)n(C)n(-c2ccccc2)c1=O (configuration not stated),2.2
17,CC(=O)NC1CCSC1=O (configuration not stated),-0.846
18,CC[C@@H](CO)NC(=O)[C@@H]1C=C2c3cccc4[nH]cc(c34)C[C@H]2N(C)C1,1.3
19,CNC(C)(C)Cc1ccccc1,1.46
20,CN1C(=O)CCS(=O)(=O)C1c1ccc(Cl)cc1 (configuration not stated),1.93
21,CCn1cc(C(=O)O)c(=O)c2cc3c(cc21)OCO3,14.7
22,Cc1c(C(=O)c2cccc3ccccc23)c2cccc3c2n1[C@H](CN1CCOCC1)CO3,-5.15
23,C[C@@H]1CC[C@H]2[C@@H](C)C(=O)O[C@@H]3O[C@@]4(C)CC[C@@H]1[C@]32OO4,3.6
24,CN1C(=O)c2ccccc2NC(=O)C1Cc1ccccc1 (configuration not stated),2.63
25,O=c1c2ccccc2[se]n1-c1ccccc1,4.17

# Single values from above.
# `CCn1cc(C(=O)O)c(=O)c2cc3c(cc21)OCO3` | cell shape (Z-score): 14.7
# `CC12C(=O)OC(=O)C1(C)C1CCC2O1` (configuration not stated) | cell shape (Z-score): -12.8
# `CCOP(=S)(OCC)Oc1nc(Cl)c(Cl)cc1Cl` | cell shape (Z-score): 1.76
# `Cc1c(C(=O)c2cccc3ccccc23)c2cccc3c2n1[C@H](CN1CCOCC1)CO3` | cell shape (Z-score): -5.15

# More entries

row,Structure (SMILES),cell shape (Z-score)
1,Cc1ncc(CN2CC=C(c3ccccc3)CC2)c(N)n1,1.64
2,CC(C)C1(NC(=O)C2CC3c4cccc5[nH]cc(c45)CC3N(C)C2)OC2(O)C3CCCN3C(=O)C(Cc3ccccc3)N2C1=O (configuration not stated),3.08
3,CCC(CO)NC(=O)C1C=C2c3cccc4c3c(cn4C)CC2N(C)C1 (configuration not stated),1.21
4,Clc1cccc(SC2CCNCC2)n1,-1.72
5,N#Cc1c(Oc2cccc(OS(=O)(=O)CCCC(F)(F)F)c2)cccc1C(F)(F)F,1.75
6,CC[C@H]1CN2CCC1C[C@@H]2[C@H](O)c1ccnc2ccc(OC)cc12 (some centres not stated),-0.0446
7,NP(N)(=O)NC(=O)c1ccc(F)cc1,1.35
8,CC(C)(N)Cc1ccccc1,1.48
9,CCOC(=O)c1ncc2[nH]c3ccc(OCc4ccccc4)cc3c2c1COC,-0.571
10,C[C@]12CCC3C(CC[C@H]4CC(=O)CC[C@]34C)C1CCC2=O (some centres not stated),-2.01
11,CCCN1CCCC2Cc3n[nH]cc3CC21 (configuration not stated),3.76
12,CCNCC(O)c1cccc(O)c1 (configuration not stated),-0.645
13,CC(=O)O[C@@H]1C[C@@]2(C)[C@H](c3ccoc3)C[C@H]3O[C@]32[C@]2(C)C(=O)C(=O)C3C(C)(C)C(=O)C=C[C@]3(C)C12 (some centres not stated),-3.62
14,CC(C)NCC(O)c1ccccc1Cl (configuration not stated),0.72
15,CC(=O)NCCc1c[nH]c2ccccc12,0.144
16,C=C[C@H]1C[N@@]2CC[C@H]1C[C@@H]2[C@H](O)c1ccnc2ccccc12,0.0426
17,C[C@@H]1CC[C@H]2[C@@H](C)C(=O)O[C@@H]3O[C@]4(C)CC[C@@H]1[C@]32OO4,0.573
18,O=c1ccc2[nH]cc(C3=CCNCC3)c2[nH]1,1.74
19,N#CC(C#N)=Cc1ccc([N+](=O)[O-])c(O)c1,1.9
20,Cc1c(C(=O)c2cccc3ccccc23)c2cccc3c2n1[C@@H](CN1CCOCC1)CO3,3.85
21,O=C1CSC(c2ccccc2Cl)c2cc(Cl)ccc2N1 (configuration not stated),1.77
22,Cc1c2ccncc2c(C)c2c1[nH]c1ccccc12,3.64
